± gives the standard deviation of the averaged measurements. The list shows a part of the results. Single values are uncertain, as repeats are few or missing.

The results in this text go back to the supplement of paper PMC12578635.

In the experiment the test system is RAW 264.7 macrophages infected with S. aureus JE2-lux. Briefly: host macrophage viability (CellTiter-Fluor) relative to DMSO vehicle; higher = more viable host cells. The note with it: 10 µM; treatment time 4 h; gentamicin 50 µg/ml.
With `Cn1c(SCC(=O)NCCCc2ccccc2)nc2c(-c3ccccc3)csc2c1=O`, the host macrophage viability was determined as 126%. In the case of `CC1(C(=O)Nc2ncc(Cc3cccc(C(F)(F)F)c3)s2)Cc2ccccc2C(=O)O1` (stereo unspecified) it was 127%. In the case of `CCc1ccccc1NC(=O)Cc1c(C)nn(-c2nc(-c3ccc(C)cc3)cs2)c1O` it was 122%; in that of `COc1cccc(NC(=O)Cn2c(C)cc(=O)n3nc(-c4ccccc4C)nc23)c1`, 118%. In the case of `O=C(CC1Nc2ccccc2NC1=O)Nc1ccc(N2CCCCC2)cc1` (stereo unspecified) it was 113%; in that of `Cc1cc(NC(=O)NCCCSc2nnc(C)s2)no1`, 106%. For `C=CCOc1ccccc1NC(=O)c1c(-c2ccncc2)noc1C`, the host macrophage viability was found to be 90.4%.

In the case of `COc1ccc(S(=O)(=O)N(C(C)=O)c2ccc3oc(C)c(C(C)=O)c3c2)cc1`, the host macrophage viability is 114%. Turning to `CC1Cc2cc(-c3nn(-c4ccccc4)cc3/C=C3\SC(=S)NC3=O)ccc2O1` (stereo unspecified), the host macrophage viability came out at 105%. In the case of `CCOC(=O)CSC1=C(C#N)C(c2ccccc2[N+](=O)[O-])C(C(=O)OC)C(=O)N1` (stereo unspecified), the host macrophage viability came out at 133%. As to `O=C(O)c1ccc2c(c1)C(=O)N(CCCN1CCOCC1)C2=O`, the host macrophage viability came to 128%.

On to `COc1ccc(NC(=O)N2c3ccccc3CC2C(N)=O)c(OC)c1` (stereo unspecified), for which the host macrophage viability was 113%. As for `COc1ccc(-n2ccn(CC(=O)Nc3ccc(Br)cc3F)c(=O)c2=O)cc1Cl`, the host macrophage viability was 119%. Next, `COc1ccc(C)c2sc(N(Cc3ccccc3)C(=O)c3ccco3)nc12`: 124%; `COCCNC(=O)COc1ncnc2onc(-c3ccc(F)cc3)c12`: 128%.

For the molecule `COc1ccccc1Cn1c(=S)[nH]c2cc(C(=O)N3CCCCC3)ccc2c1=O`, the host macrophage viability was 109%. Next, `Cn1ncc2c1CCc1sc(NC(=O)CCC3CCCCC3=O)nc1-2` (stereo unspecified): 108%. Next, `Cc1oc2ncnc(N3CCCC(C(=O)Nc4ccc(F)c(F)c4)C3)c2c1C` (stereo unspecified): 106%; `CC1CCc2c(sc3ncn(C4CCN(C(=O)c5cc[nH]n5)CC4)c(=O)c23)C1` (stereo unspecified): 94.9%; `COc1ccc(C(=O)NCCc2cc3c(C)ccc(C)c3[nH]c2=O)c(OC)c1`: 122%. Next, `O=C(CSCc1ccccc1)Nc1cccc2c1C(=O)NC2=O`: 103%; `CC(CCc1ccccc1)NC(=O)Cn1c2c(c(=O)n3nc(-c4ccccc4)nc13)CCC2` (stereo unspecified): 104%; `Cc1cc(Oc2ncnc(N)c2[N+](=O)[O-])cc(C(C)C)c1`: 125%. Take `CC(C)[C@H](Cn1nc(C2CC2)ccc1=O)NC(=O)c1cnn2cccnc12`: the host macrophage viability worked out at 92.8%. Next, `COc1ccc(NC(=O)C(=O)Nc2cc3c4c(c2)CC(=O)N4CCC3)cc1`: 122%; `O=C(Nc1ccc2c(c1)CCCN2C(=O)C1CC1)c1ccccc1C(F)(F)F`: 112%.

In the case of `O=C(CN1CCc2nc(N3CCCC3)[nH]c(=O)c2C1)Nc1nccs1`, the host macrophage viability stood at 108%. In the case of `COc1cc(NC(=O)c2cnn3c4c(cnc23)C(=O)CC(C)(C)C4)cc(OC)c1` it was 116%; in that of `Cc1ccc(NC(=O)c2ccnc(Nc3ccc(F)cc3)c2)cc1`, 122%. In the case of `COCCN(Cc1cc2ccc(C)c(C)c2nc1Cl)C(=O)Nc1ccccc1C` it was 98.3%; in that of `COC(=O)c1sc2ccccc2c1NC(=O)c1cc(Cl)ccc1[N+](=O)[O-]`, 120 ± 3%. In the case of `Nc1nc(SCC(=O)NCc2ccccc2)nc2sc3c(c12)CCC3` it was 110%; in that of `CCOc1ccc(NC(=O)Nc2c(-c3cccnc3)[nH]c3ccccc23)cc1`, 113%. Regarding `CC1=C(C(=O)OC2CCCCCCC2)C(c2ccccc2Cl)NC(=O)N1` (stereo unspecified), the host macrophage viability worked out at 110%. Next, `COc1cc(C2CC(=O)Nc3c2cnn3-c2nc3ccccc3s2)ccc1OCc1ccc(C)cc1` (stereo unspecified): 112%; `CC(C)CCNC(=O)CSc1nc(-c2cccc(Cl)c2)nc2cc(=O)[nH]n12`: 131%. In the case of `CCOc1ccc(NC(=O)Cn2c3ccccc3n3c(=O)cc(-c4ccccn4)nc23)cc1` it was 127%; in that of `Cc1cc(NS(=O)(=O)c2ccc(NC(=O)c3cnc4sccn4c3=O)cc2)nc(C)n1`, 103 ± 6.5%.

Turning to `COc1ccc2o/c(=N\c3sc4c(c3C(N)=O)CCCC4)c(C(N)=O)cc2c1`, the host macrophage viability came out at 108%. In the case of `COc1ccc(Cn2c(C)cn3c4c(=O)n(CCCO)c(=O)n(C)c4nc23)cc1` it was 99.7%; in that of `O=C(Cn1cnc2c(cnn2-c2cccc(Cl)c2)c1=O)OCc1ccccc1`, 124%; in that of `Cc1ccccc1OCC(=O)Nc1ccccc1SCc1nnc(-c2ccccc2)o1`, 107%. In the case of `Fc1cccc2sc(NCc3ccccc3)nc12` it was 114 ± 5.1%. In the case of `COc1ccc(CCNC(=O)c2cnc3c(C)cccc3c2O)cc1OC` it was 110%; in that of `Cc1cccnc1NC(=O)NC1CC(=O)N(c2ccc(Cl)cc2)C1` (stereo unspecified), 114%.

In the case of `COc1ccc(-c2noc(N3CCC(C(=O)Nc4cccc(C)c4C)CC3)n2)cc1`, the host macrophage viability was 122%. Next, `Cc1ccc(-n2nc3c(c2NC(=O)c2ccc(OC(C)C)cc2)CS(=O)C3)cc1` (stereo unspecified): 123%; `Cc1ccc2cc(CCNC(=O)c3ccc(Br)o3)c(=O)[nH]c2c1C`: 130%. Next, `CCCN1CCC2(CC1)NC(=O)N(CC(=O)NCc1ccco1)C2=O`: 110%; `O=C(NCc1ccccc1)c1cnc2ccccc2c1O`: 98.3%. Next, `Cc1cc2cc(CCNC(=O)C(C)Oc3ccccc3)c(=O)[nH]c2cc1C` (stereo unspecified): 119%; `CCOC(=O)C1CCCN(C(=O)C(=O)c2c(C)n(C)c3ccccc23)C1` (stereo unspecified): 95.52 ± 0.3%.

With `CC1CCN(C(=O)Cn2c3c(c(=O)n4ncnc24)CCC3)CC1`, the host macrophage viability was 99.2%. Next, `Cc1ccc(C)c(N(CC(=O)NCCc2ccccc2)C(=O)c2csnn2)c1`: 101%; `CC(C)NC(=O)Cn1c2c(c(=O)n3ncnc13)CCC2`: 107%; `CSc1nc2ccc3nc(NC(=O)c4ccc(C#N)cc4)sc3c2s1`: 107.9 ± 0.64%. In the case of `COc1ccccc1N1CCN(c2nn3cnnc3c3ccccc23)CC1` it was 112%; in that of `Cc1ccc(S(=O)(=O)Nc2ccc3nnc(-c4ccccc4)n3n2)c(C)c1`, 125%. Next, `COc1ccccc1C1Nc2ccc(Br)cc2[C@H]2OCCC[C@@H]12` (stereo partly specified): 110%. `O=C1NC2=C(C(=O)N(CC3CCCO3)C2)C(c2ccccc2)N1` (stereo unspecified): the host macrophage viability was determined as 109%. Regarding `Cc1ccc(CNC(=O)CSc2nc(=O)[nH]cc2C)cc1`, the host macrophage viability amounted to 107%. Next, `CC1(C)CC(=O)C2=C(C1)OC(N)=C(C#N)C2c1cccs1` (stereo unspecified): 103%; `COc1ccc(-c2cc(=O)c3ccc(NC(C)=O)cc3o2)cc1`: 141%; `Cc1nc2ccc3nc(NC(=O)/C=C/c4ccccc4Cl)sc3c2s1`: 131%. For the molecule `O=C(Nc1nc2c(cc3c4c(cccc42)CC3)s1)c1cc2ccccc2oc1=O`, the host macrophage viability is 117 ± 28%. In the case of `CCOC(=O)C1CCN(c2nn3c(NC(C)(C)C)c(-c4cccc(F)c4)nc3s2)CC1` it was 113%.
